Results are given in words; binding and its absence hold for the method and conditions named. Some binding calls cover weakened binding; strength is not graded here.

To fix the notation:
B1: AtPep3 (peptide)
peptide: DNKAKSKKRDKEKPSSGRPGQTN
B2: AtPep4 (peptide)
peptide: EIKARGKNKTKPTPSSGKGGKHN
B3: AtPep2 (peptide)
peptide: SLNVMRKGIRKQPVSSGKRGGVN

In the assay the target is T1, AtPEPR1 (Arabidopsis thaliana, UniProt Q9SSL9 29-1123, glycosylated (about 180 kD, about 150 kD after PNGase F)).
T1 sequence: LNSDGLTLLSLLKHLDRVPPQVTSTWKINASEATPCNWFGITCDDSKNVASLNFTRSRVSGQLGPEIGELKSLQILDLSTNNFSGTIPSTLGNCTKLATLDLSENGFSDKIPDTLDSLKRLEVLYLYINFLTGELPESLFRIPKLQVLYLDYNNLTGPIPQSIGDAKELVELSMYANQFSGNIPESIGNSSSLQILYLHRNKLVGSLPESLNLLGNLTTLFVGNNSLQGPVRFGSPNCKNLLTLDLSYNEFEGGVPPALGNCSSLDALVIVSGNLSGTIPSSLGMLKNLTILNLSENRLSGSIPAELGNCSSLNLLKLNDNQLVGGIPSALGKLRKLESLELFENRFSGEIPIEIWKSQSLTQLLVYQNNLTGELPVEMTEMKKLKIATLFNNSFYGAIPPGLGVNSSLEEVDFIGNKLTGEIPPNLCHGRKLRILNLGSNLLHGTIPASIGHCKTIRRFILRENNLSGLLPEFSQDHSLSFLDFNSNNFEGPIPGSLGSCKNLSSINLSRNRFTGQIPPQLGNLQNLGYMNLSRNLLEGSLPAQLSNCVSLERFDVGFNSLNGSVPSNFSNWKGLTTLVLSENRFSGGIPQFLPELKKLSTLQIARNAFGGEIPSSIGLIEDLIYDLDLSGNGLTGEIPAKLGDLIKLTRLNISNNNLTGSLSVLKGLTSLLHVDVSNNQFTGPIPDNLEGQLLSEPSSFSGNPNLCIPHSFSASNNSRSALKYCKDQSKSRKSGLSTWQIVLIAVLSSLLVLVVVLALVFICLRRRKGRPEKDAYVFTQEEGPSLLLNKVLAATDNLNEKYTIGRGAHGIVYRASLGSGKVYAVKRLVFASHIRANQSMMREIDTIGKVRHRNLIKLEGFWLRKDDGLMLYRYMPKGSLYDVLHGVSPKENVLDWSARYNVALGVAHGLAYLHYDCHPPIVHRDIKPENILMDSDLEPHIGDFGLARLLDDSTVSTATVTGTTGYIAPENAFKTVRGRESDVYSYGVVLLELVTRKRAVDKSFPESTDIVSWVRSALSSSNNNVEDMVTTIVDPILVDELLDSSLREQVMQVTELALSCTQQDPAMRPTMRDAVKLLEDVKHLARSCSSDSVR
Put plainly: competition with 125I1-Tyr-AtPep1 on Arabidopsis suspension cultured cells.
For the molecule B1, the binding entry is listed as “binds”. Next, B2: “binds”. In the case of B3 it was “binds”.
